Literature values, collected in patent EP1206489B1, “ORALLY ACTIVE PEPTIDES THAT PREVENT CELL DAMAGE AND DEATH” (RAMOT UNIVERSITY, AUTHORITY FOR APPLIED RESEARCH & …, priority 1999, dated 2004).
Not every detail of the peptide structures is certain; ends, links or a residue may be inferred.

System: ApoE-deficient mice
Conditions: ApoE-deficient mice with reduced choline acetyl transferase activity; Bassan et al. 1999; cited from earlier work

Row | SMILES | cholinergic function
1 | CC[C@H](C)[C@H](NC(=O)[C@H](CO)NC(=O)[C@H](CCCNC(=N)N)NC(=O)[C@H](CC(C)C)NC(=O)[C@H](CC(C)C)NC(=O)[C@H](C)NC(=O)[C@@H](N)CO)C(=O)N1CCC[C@H]1C(=O)N[C@@H](C)C(=O)O [L-SAL, Ser-Ala-Leu-Leu-Arg-Ser-Ile-Pro-Ala, reference compound] | less effective
2 | CC[C@H](C)[C@H](NC(=O)[C@H](CO)NC(=O)[C@@H](NC(=O)[C@@H]1CCCN1C(=O)[C@H](C)NC(=O)[C@@H](N)CC(N)=O)C(C)C)C(=O)N1CCC[C@H]1C(=O)N[C@@H](CCC(N)=O)C(=O)O [L-NAP, Asn-Ala-Pro-Val-Ser-Ile-Pro-Gln, reference compound] | significantly increased cholinergic function to control levels
